Source: PubChem BioAssay AID2685 (National Center for Advancing Translational Sciences (NCATS), 2010)
The campaign covered roughly 320,000 compounds. About 2,100 (0.66%) were called active. This list was built around the results that the source calls inconclusive (neither active nor inactive); the mix of calls is not that of the screen. Calls follow the shape of the dose curve; as a rule, active = well fitted inhibition curve with a large enough effect in the signal ratio, with a control signal flat (not every such curve was filed as active); inconclusive = small, poorly fitted or top-dose-only effect, or effect the other way, or a change in a side signal; inactive = flat fitted curve, though single readings scatter; the % refers to the signal ratio. A potency beside an inconclusive call is a rough fit, not a confirmed value.

Assay: qHTS Assay for Lipid Storage Modulators in Drosophila S3 Cells
Details: BODIPY lipid droplet fluorescence, 18-24 h, cells fed with added oleic acid; lipid storage change, negative = inhibition: at 46.1 µM (top of the series) unless noted
Outline: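 Drosophila S3 cells got compounds at several concentrations plus oleic acid (400 uM solution). Laser-scanning cytometry with 488 nm excitation read lipid droplets at 500-530 nm and cells at 575-640 nm. Percent activity was relative to 20 uM Triacsin C.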
% is scaled to controls: 0 for no effect and ±100 for the full control effect; potency is read from the fitted curve at half-maximal effect.

SMILES	lipid storage change, negative = inhibition	Potency
O=C(c1cccc(S(=O)(=O)N2CCCCC2)c1)N1CCN(S(=O)(=O)c2ccc(F)cc2)CC1	inconclusive: -6.74%	
COc1ccc(C(=O)OCCN2C(=O)c3ccccc3C2=O)cc1	inconclusive: 41.1%	
COc1cc(CNCCO)cc(Br)c1OCc1cccs1	inconclusive: -12.9%	
NC(=O)CNC(=O)[C@@H]1CC2(CC(c3ccc(Cl)cc3)=NO2)CN1C(=O)c1ccc(Br)cc1 (stereo partly specified)	inconclusive: -30.4%	
O=c1c2ccccc2cnn1Cc1n[nH]c(=S)n1-c1ccccc1F	inconclusive: 20.2%	
CCCCCCCCCCCCCCCC[n+]1ccc(C(N)=O)cc1		inconclusive: 29.1 µM [falling, single point]
Cc1cc(C)cc(-c2nnc(SCC(=O)N3CCN(C(=O)c4ccco4)CC3)o2)c1		inconclusive: 6.51 µM [activator, partial curve]
CC1(C)NC(=O)N(CC(O)CN(c2ccccc2)S(=O)(=O)c2ccccc2)C1=O (stereo unspecified)		inconclusive: 5.17 µM [falling, partial curve, poor fit]
Cc1ccc(Nc2nc(N)c([N+](=O)[O-])c(NCc3ccco3)n2)cc1C		inconclusive: 20.6 µM [falling, single point]
CCCNC(=O)Nc1cccc(NC(C)=O)c1	inactive	
Cc1cc(OC(C)C(=O)NCCCn2ccnc2)c2c(C)cc(=O)oc2c1 (stereo unspecified)	inconclusive: 20.9%	
CN(CCc1ccccc1)C1CCCN(S(=O)(=O)c2cccc(F)c2)C1 (stereo unspecified)	inconclusive: 16.7%	
Cc1cccc(C(=O)NNC2=CC(=O)CC(C)(C)C2)c1O	inconclusive: 18.8%	
COc1ccc(/C=C(\CC(=O)O)c2nc3ccccc3o2)cc1	inconclusive: 9.69%	
CC(=O)c1ccccc1NC(=O)CN1C(=O)CS/C1=C\c1nc(-c2ccc(C)cc2)cs1	inconclusive: 12.2%	
COc1ccc(NC(=O)c2cccnc2)c(OC)c1		inconclusive: 18.4 µM [activator, partial curve]
COc1ccc2cc(C=NS(=O)(=O)c3ccc(C)cc3)n(C)c2c1	inconclusive: 5.21%	
CS(=O)(=O)N(Cc1ccccc1)c1ccc(C(=O)N2CCN(c3cccc(Cl)c3)CC2)cc1	inconclusive: 162%	
CCOC(=O)[C@@H]1[C@H]2COc3ccccc3[C@@H]2N2C(=O)N(c3ccccc3)C(=O)[C@@]12C		inconclusive: 16.4 µM [activator, single point]
COCCN1CCN(Cc2cn(C)nc2-c2ccc(Oc3ccccc3)cc2)CC1	inconclusive: -0.566%	
CCCN(CCC)CCNC(=O)c1cc2c(-c3ccc(Cl)cc3)nn(C)c2s1	inconclusive: -52.1%	

Quoted at random: two entries already listed
SMILES	lipid storage change, negative = inhibition	Potency
CCCN(CCC)CCNC(=O)c1cc2c(-c3ccc(Cl)cc3)nn(C)c2s1	inconclusive: -52.1%	
NC(=O)CNC(=O)[C@@H]1CC2(CC(c3ccc(Cl)cc3)=NO2)CN1C(=O)c1ccc(Br)cc1 (stereo partly specified)	inconclusive: -30.4%	
